Results: article doi:10.1101/2022.03.02.482654
These are yes or no findings as the source states them, for the method shown. Binding seen in cells or lysates may run through a third protein. Some binding calls cover weakened binding; strength is not graded here. Tags and fused reporters may be left off the sequences shown.

Protein sequences, listed by entry. Tags and fused reporters are not part of them.
UniProt Q9SR02: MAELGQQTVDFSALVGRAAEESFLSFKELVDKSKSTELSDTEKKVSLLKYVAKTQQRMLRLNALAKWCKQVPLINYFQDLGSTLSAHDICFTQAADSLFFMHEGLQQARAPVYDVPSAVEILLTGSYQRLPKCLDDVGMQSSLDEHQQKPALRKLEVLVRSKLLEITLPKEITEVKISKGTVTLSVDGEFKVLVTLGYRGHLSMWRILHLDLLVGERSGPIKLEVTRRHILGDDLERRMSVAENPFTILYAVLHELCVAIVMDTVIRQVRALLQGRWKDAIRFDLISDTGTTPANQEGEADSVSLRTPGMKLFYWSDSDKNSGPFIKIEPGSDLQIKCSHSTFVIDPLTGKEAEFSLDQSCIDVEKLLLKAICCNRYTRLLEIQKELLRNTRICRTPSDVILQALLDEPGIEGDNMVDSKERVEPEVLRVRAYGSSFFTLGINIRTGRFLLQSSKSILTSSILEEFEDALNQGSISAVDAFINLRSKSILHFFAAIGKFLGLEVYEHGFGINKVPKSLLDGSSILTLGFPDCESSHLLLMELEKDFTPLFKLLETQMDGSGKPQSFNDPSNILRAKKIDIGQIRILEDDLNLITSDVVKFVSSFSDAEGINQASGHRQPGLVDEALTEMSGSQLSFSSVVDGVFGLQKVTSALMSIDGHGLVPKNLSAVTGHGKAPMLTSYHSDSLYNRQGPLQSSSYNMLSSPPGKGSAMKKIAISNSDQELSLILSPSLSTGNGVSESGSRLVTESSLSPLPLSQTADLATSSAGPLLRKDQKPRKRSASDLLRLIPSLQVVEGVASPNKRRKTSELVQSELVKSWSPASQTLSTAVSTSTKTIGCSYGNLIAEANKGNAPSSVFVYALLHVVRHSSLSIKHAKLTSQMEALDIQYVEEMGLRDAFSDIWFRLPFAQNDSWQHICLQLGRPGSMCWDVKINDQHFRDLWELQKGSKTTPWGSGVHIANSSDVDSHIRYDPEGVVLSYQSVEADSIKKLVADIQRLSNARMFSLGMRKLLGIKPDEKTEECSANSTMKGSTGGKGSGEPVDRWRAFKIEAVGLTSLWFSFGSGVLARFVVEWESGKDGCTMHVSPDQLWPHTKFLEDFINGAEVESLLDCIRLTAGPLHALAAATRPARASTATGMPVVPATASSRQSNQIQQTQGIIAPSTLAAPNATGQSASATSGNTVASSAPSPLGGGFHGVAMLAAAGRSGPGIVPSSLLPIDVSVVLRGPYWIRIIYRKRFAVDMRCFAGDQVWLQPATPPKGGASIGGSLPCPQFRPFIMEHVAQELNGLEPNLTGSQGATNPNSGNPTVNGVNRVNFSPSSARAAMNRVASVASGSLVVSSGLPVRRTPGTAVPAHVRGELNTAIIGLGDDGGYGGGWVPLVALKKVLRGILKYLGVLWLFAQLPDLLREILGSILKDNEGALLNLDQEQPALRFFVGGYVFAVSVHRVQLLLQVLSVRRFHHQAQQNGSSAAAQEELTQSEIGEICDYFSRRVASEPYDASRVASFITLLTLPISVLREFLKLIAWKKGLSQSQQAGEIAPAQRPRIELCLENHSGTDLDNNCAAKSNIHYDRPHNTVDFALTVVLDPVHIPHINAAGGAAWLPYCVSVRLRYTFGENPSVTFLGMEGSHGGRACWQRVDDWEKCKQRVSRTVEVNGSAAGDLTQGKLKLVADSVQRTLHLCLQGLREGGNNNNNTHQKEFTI

Tests used:
[1] = target: T1, GST-PIF4 (PHYTOCHROME-… FACTOR 4) (Arabidopsis thaliana) (UniProt Q8W2F3); test: pull-down
T1 sequence: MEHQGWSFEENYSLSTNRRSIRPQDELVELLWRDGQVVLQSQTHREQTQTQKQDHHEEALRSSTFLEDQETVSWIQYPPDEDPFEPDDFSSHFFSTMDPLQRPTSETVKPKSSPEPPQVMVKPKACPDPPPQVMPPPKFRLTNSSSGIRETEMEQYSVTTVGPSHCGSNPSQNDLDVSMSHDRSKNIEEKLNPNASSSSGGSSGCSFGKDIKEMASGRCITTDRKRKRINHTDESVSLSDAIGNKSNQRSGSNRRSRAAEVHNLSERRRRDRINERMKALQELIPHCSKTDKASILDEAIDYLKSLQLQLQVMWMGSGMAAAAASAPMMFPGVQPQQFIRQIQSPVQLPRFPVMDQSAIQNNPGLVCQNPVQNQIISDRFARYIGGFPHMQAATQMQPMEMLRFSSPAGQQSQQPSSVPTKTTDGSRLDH

[2] = target: T2, PIF4 fused with NmVenus210 (Arabidopsis thaliana) (UniProt Q8W2F3); test: split reporter
T2 sequence: T1 sequence

Substance | binding [1] | binding [2]
HA-MED14 (from UniProt Q9SR02 1-1703) | binds | 
MED14 fused with cVenus210 (from UniProt Q9SR02 1-1703) |  | binds
